In patent US8759500B2, “Crystalline forms of a macrolide, and uses therefor” (Cempra Pharmaceuticals, Inc., priority 2010, dated 2014):
Some entries share one result that the patent states for a list of compounds.

Assay: Stability of Form I and Form II under various storage conditions
Assay type: physicochemical
Settings: at each time point
Description: In each case, the test material was first placed in Primary Packaging Material (LLDPE bag within a HMHDPE/LDPE/LDPE blend bag, and then heat sealed). The Primary Packaging Material was placed in Secondary Packaging Material (HDPE drum). All other impurities were less than 1% at each time point.

## CC[C@H]1OC(=O)[C@@](C)(F)C(=O)[C@H](C)[C@@H](O[C@@H]2O[C@H](C)C[C@H](N(C)C)[C@H]2O)[C@](C)(OC)C[C@@H](C)C(=O)[C@H](C)[C@H]2N(CCCCn3cc(-c4cccc(N)c4)nn3)C(=O)O[C@]12C [Form I, solithromycin]
  All other impurities: less than 1%

## CC[C@H]1OC(=O)[C@@](C)(F)C(=O)[C@H](C)[C@@H](O[C@@H]2O[C@H](C)C[C@H](N(C)C)[C@H]2O)[C@](C)(OC)C[C@@H](C)C(=O)[C@H](C)[C@H]2N(CCCCn3cc(-c4cccc(N)c4)nn3)C(=O)O[C@]12C [Form II, solithromycin]
  All other impurities: less than 1%
